Data reported in PubChem BioAssay AID2685 (National Center for Advancing Translational Sciences (NCATS), 2010).
Some of the results follow. The main result of the screen is listed elsewhere. These columns were measured beside it and carry no call. Most of these compounds were active or inconclusive in the main read-out, so they are no random draw. Words in brackets tell the shape of the fitted curve; partial curves, single points and poor fits give uncertain potencies.

Experiment: qHTS Assay for Lipid Storage Modulators in Drosophila S3 Cells;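 for cell number change: cells counted by Cell Tracker Red CMTPX staining in the red channel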
Settings: BODIPY lipid droplet fluorescence, 18-24 h; for cell number change: measured here: cell count max response, cells fed with added oleic acid
Summary of the method: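 Drosophila S3 cells loaded with oleic acid (400 uM, as added) and compounds at several concentrations; lipid droplets imaged by 488-nm laser-scanning cytometry, 500–530 nm intensity and object ratio to cell channel. Percent activity normalized to 20 uM Triacsin C.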

[1] = measured here: lipid fluorescence (Fed channel) AC50, cells fed with added oleic acid
[2] = measured here: cell number channel AC50, cells fed with added oleic acid

SMILES	cell number change [%]	AC50 [1]	AC50 [2]
CC(C)C(NC(=O)c1c(F)cccc1F)C(=O)N1CCN(S(=O)(=O)/C=C/c2ccccc2)CC1 (centres undefined)	-15.3	25.9 µM [rising, single point]	–
CCC(=O)c1ccc(OCC(=O)OCC(=O)c2cc(C)n(C)c2C)cc1	-13.5	29.1 µM [rising, single point]	–
Cn1c(NC(=O)CCC2CCCCC2)cc(=O)n(C)c1=O	-47	23.1 µM [falling, single point]	16.4 µM [falling, partial curve, poor fit]
CCCCn1c(N)c(N(CCOC)C(=O)C2CC(=O)N(Cc3ccc(C)cc3)C2)c(=O)[nH]c1=O (centres undefined)	-5.98	–	–
COc1ccc(Cc2nnc(NCCO)[nH]c2=O)cc1	17.1	–	–
O=C(OCc1nnc(-c2ccccc2)o1)C1CC(=O)N(CCc2ccccc2)C1 (centres undefined)	3.61	2.59 µM [rising, partial curve]	–
CCOC(=O)Cn1nc(C)c(NC(=O)COc2ccccc2)c1C	-7.69	4.11 µM [falling, partial curve, poor fit]	6.51 µM [falling, single point]
CC(C)C[C@H](NC(=O)Nc1ccc2c(c1)OCCO2)C(=O)O	–	23.1 µM [falling, partial curve]	–
O=S(=O)(Nc1ccccc1)c1cccc2nonc12	-8.56	7.31 µM [rising, partial curve]	–
CCCN=C(C)C1=C(O)c2ccccc2C1=O	0.199	6.51 µM [rising, full curve, poor fit]	–
COc1ccc(S(=O)(=O)NC(C)(C)C)cc1-c1nnc2c3ccccc3c(C)nn12	–	2.91 µM [rising, partial curve]	1.64 µM [rising, partial curve]
Cc1ccc(C(=O)NN(CCC(=O)NC(C)(C)C)C2=NS(=O)(=O)c3ccccc32)cc1	10.5	25.9 µM [rising, single point]	–
CCOc1ccc(OCCOCCOc2ccccc2Cl)cc1	30.7	18.4 µM [rising, partial curve]	32.6 µM [rising, single point]
COc1cc(OC)cc(C(=O)OCC(=O)NC(C)CCc2ccccc2)c1 (centres undefined)	82	–	18.4 µM [rising, single point]
CCCCCOc1ccc(C(=O)CCC(=O)NNC(=O)c2ccncc2)cc1	-25	–	–
COCCNc1nc2c(c(=O)n(Cc3cccc(Cl)c3)c(=O)n2C)n1C	5	–	–
CC1(C)CC(=O)C=C(NCc2cccs2)C1	-34.7	2.31 µM [falling, full curve, poor fit]	–
O=C(N/N=C/c1cc(Br)cc([N+](=O)[O-])c1O)c1ccc(NC(=O)c2ccc(F)cc2)cc1	-12	–	–
Cc1cc(NC(=O)Cc2ccccc2)nc2c1c(=O)oc1ccccc12	–	1.03 µM [rising, full curve]	0.411 µM [rising, full curve]
CCN1C(=O)/C(=C\N2CCCc3ccccc32)SC1=S	7.26	29.1 µM [rising, single point]	–

SMILES	cell number change [%]	AC50 [1]	AC50 [2]
c1ccc2nc(-c3ccc4c(c3)OCO4)ccc2c1	–	0.058 µM [rising, full curve]	1.64 µM [rising, partial curve]
CC12CC(NC(=O)N1c1cccc(C(=O)N3CCN(c4ccccc4)CC3)c1)c1ccccc1O2 (centres undefined)	-11.4	–	–
O=[N+]([O-])c1cccnc1N1CCOCC1	-6.36	0.461 µM [rising, full curve, poor fit]	1.16 µM [rising, full curve]
Cc1ccc(NC(=O)c2ccc(Cl)nc2)cc1	–	6.51 µM [falling, single point]	–
Cc1cc(O)c(/C=N/Nc2ccc(F)cc2)c(=O)o1	33.6	–	–
COc1cc2c(cc1OC)CN(C(=O)Cc1ccc(OC)c(S(=O)(=O)N3CCOCC3)c1)CC2	9.09	–	1.84 µM [falling, partial curve]
COc1ccc(-c2nnc3sc(CCN4C(=O)c5ccccc5C4=O)nn23)cc1	-17.4	3.26 µM [rising, full curve, poor fit]	–
CC(NCc1cccc(S(=O)(=O)N(C)C)c1)c1ccc(F)cc1 (centres undefined)	-43.6	29.1 µM [falling, single point]	29.1 µM [falling, single point]
Cc1ccccc1Nc1nnc(C)c(=O)[nH]1	–	6.51 µM [rising, single point]	–
COc1ccc(OC)c(C(=O)COC(=O)CNC(=O)C2CCCCC2)c1	3.81	6.51 µM [falling, single point]	–
O=C(CSc1nnc(-c2cccc(F)c2)o1)N1CCCC1	-1.28	–	–
O=C(COC(=O)c1ncc(Cl)c(Cl)c1Cl)NNC(=O)c1ccccc1	-5.15	32.6 µM [falling, partial curve]	–
Brc1ccc2ncnc(Nc3ccc(N4CCOCC4)cc3)c2c1	-24.6	0.58 µM [rising, single point]	–
O=C(Nc1ccc(Br)cc1)/C(=C/c1cccc([N+](=O)[O-])c1)NC(=O)C1CCCCC1	–	–	2.31 µM [rising, partial curve]
Cc1ccc(C(=O)NCCc2n[nH]c(=S)n2C)cc1	41.9	29.1 µM [rising, single point]	18.4 µM [rising, partial curve, poor fit]
CNc1nc(Cl)c(SC)c(NCc2cccc(OC)c2)n1	2.48	–	–
COc1ccc(CCN(C)CCC(=O)Nc2ccc(C)cc2)cc1OC	-0.414	–	–
COc1ccc(-c2[nH]nc3oc(=O)cc(C)c23)cc1	-13.1	20.6 µM [falling, single point]	–
COc1ccc(C2C(C(=O)Nc3cccc(C)n3)CCC(=O)N2c2ccc(OC)cc2)cc1 (centres undefined)	32.4	1.16 µM [rising, full curve]	8.2 µM [rising, partial curve, poor fit]
O=C(CNC(=O)c1ccc2ccccc2c1)Nc1ncccc1O	9.43	5.8 µM [rising, partial curve, poor fit]	4.61 µM [rising, single point]

SMILES	cell number change [%]	AC50 [1]	AC50 [2]
Cc1cc(C(=O)NCC(=O)Nc2c(C)cccc2C)c(C)o1	-17.3	–	–
CC1CC(=O)C(C2c3ccccc3CCN2C(=O)CCl)C(=O)C1 (centres undefined)	-9.64	6.51 µM [falling, partial curve, poor fit]	–
Cc1cc(=O)[nH]c(SCC(=O)NC2CCCCC2)n1	-2.56	29.1 µM [rising, single point]	–
O=C(COC(=O)CNC(=O)c1ccc(Cl)cc1Cl)NCc1ccco1	13	32.6 µM [falling, single point]	–
CC(=O)Nc1ccc(/C=C(\C#N)C(=O)NC2CCCCC2)cc1	–	29.1 µM [falling, single point]	–
COc1ccccc1N1CCN(Cc2nc(N)nc(Nc3ccc(C)cc3)n2)CC1	10.7	2.06 µM [rising, partial curve]	–
COCCN(Cc1ccccc1)C(=O)c1cccc(S(=O)(=O)N2CCN(c3ccccc3)CC2)c1	1.25	16.4 µM [falling, single point]	–
CCN(CC)S(=O)(=O)c1ccc2[nH]cc(C(=O)NCCCN3CCCCC3)c(=O)c2c1	-30.1	0.517 µM [falling, full curve]	0.92 µM [falling, full curve, poor fit]
CN(CC(=O)Nc1ccc(F)cc1)C(=O)C1CCCC1	-14.2	0.00517 µM [falling, full curve, poor fit]	0.00517 µM [falling, full curve, poor fit]
N#CCCN1CCN(S(=O)(=O)c2ccc3c(c2)CCC3)CC1	5.58	6.51 µM [falling, single point]	6.51 µM [falling, single point]
Cc1cc(NC(=O)COc2ccc(F)c(Cl)c2)no1	24.9	10.3 µM [rising, partial curve, poor fit]	–
CN(C)CCCN(C(=O)c1ccc(S(=O)(=O)N2CCCCCC2)cc1)c1nc2c(F)cc(F)cc2s1	67.7	–	29.1 µM [rising, single point]
O=c1cc(O)c2c(=O)n(-c3ccccc3)c3c(c2o1)CCCCCC3	-14.4	2.91 µM [falling, full curve]	3.26 µM [falling, single point]
CCN1CCN(Cc2ccc(NC(=O)c3cc(NC(=O)C4=NN(c5ccccc5)C(=O)C4)cc(OC)c3)cc2C(F)(F)F)CC1	9.1	1.84 µM [rising, partial curve, poor fit]	2.91 µM [rising, partial curve, poor fit]
COc1ccc(-c2cc(=Nc3ccc(C)cc3)c3ccccc3o2)cc1	-18.3	25.9 µM [falling, single point]	–
O=c1cnc2ccccc2n1Cc1ccc(Br)cc1	6.85	25.9 µM [rising, partial curve]	–
Cc1ccc(C)c(NC(=O)CSc2nnc(-c3ccccc3C)o2)c1	47.8	0.58 µM [rising, full curve]	0.731 µM [rising, partial curve, poor fit]
Cc1nc(-c2nc(CC(=O)NNC(=O)c3ccc(Cl)cc3)cs2)cs1	14.2	0.517 µM [rising, partial curve, poor fit]	–
